Measured values: PMC11026472
No constants are given. Whether binding was seen depends on the method and setting. Binding seen in cells or lysates may run through a third protein. Some results given as binding are weak or reduced against the parent protein; the word gives no strength.

Amino acid sequences for entries named in this document (tags omitted). Residues count along the entry.
UniProt P21802, residues 22-821: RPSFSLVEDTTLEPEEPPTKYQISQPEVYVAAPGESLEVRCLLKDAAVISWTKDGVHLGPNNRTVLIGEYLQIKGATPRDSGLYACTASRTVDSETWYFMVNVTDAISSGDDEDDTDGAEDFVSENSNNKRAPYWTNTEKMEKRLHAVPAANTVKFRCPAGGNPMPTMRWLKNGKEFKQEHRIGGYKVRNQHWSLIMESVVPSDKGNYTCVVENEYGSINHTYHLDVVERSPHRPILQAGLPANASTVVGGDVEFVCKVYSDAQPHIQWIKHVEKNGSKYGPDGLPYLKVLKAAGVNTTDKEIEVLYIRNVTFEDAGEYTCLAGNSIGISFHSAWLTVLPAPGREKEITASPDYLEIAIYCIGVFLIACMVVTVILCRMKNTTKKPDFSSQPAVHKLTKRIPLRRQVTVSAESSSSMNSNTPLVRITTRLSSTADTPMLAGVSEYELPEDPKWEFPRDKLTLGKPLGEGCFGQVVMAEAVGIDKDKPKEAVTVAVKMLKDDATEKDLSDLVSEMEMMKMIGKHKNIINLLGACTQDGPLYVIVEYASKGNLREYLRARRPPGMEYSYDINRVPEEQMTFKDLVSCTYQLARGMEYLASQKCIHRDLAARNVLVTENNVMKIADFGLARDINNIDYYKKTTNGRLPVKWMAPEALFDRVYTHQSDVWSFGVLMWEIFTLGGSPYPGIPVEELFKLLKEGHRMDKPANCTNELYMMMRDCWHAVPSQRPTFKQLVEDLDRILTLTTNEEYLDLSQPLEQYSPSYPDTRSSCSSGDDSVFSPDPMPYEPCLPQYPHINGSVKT

Biological target: T1, FGF5 (human (endogenous in NPC tissues)) (UniProt P12034)
T1 sequence: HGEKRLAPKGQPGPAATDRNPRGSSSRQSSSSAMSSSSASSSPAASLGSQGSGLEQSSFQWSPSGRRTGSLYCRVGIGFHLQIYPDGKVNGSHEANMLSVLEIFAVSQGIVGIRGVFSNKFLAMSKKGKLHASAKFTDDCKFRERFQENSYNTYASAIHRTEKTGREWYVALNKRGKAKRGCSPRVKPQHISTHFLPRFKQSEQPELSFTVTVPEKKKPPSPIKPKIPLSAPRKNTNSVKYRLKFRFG
Assay: co-IP; NPC tumor tissue lysate incubated with anti-FGF5 antibody or normal rabbit IgG at 4 °C overnight, Protein A/G agarose 4 h at 4 °C; FGFR1, FGFR2, FGFR3, FGFR4 and FGF5 detected by western blot

- binding: binds
Substance: FGFR2 (from UniProt P21802 22-821) (receptor)
